Measured values published in article PMC10645587.
No constants are given. Whether binding was seen depends on the method and setting. Binding seen in cells or lysates may run through a third protein. Some binding calls cover weakened binding; strength is not graded here. For some of these results: Where a sequence is shown, tags or fusion partners need not be part of it.

B1: Laminin-5γ-2 (LAMC2), endogenous (protein, UniProt Q13753 22-1193)
chain: TSRREVCDCNGKSRQCIFDRELHRQTGNGFRCLNCNDNTDGIHCEKCKNGFYRHRERDRCLPCNCNSKGSLSARCDNSGRCSCKPGVTGARCDRCLPGFHMLTDAGCTQDQRLLDSKCDCDPAGIAGPCDAGRCVCKPAVTGERCDRCRSGYYNLDGGNPEGCTQCFCYGHSASCRSSAEYSVHKITSTFHQDVDGWKAVQRNGSPAKLQWSQRHQDVFSSAQRLDPVYFVAPAKFLGNQQVSYGQSLSFDYRVDRGGRHPSAHDVILEGAGLRITAPLMPLGKTLPCGLTKTYTFRLNEHPSNNWSPQLSYFEYRRLLRNLTALRIRATYGEYSTGYIDNVTLISARPVSGAPAPWVEQCICPVGYKGQFCQDCASGYKRDSARLGPFGTCIPCNCQGGGACDPDTGDCYSGDENPDIECADCPIGFYNDPHDPRSCKPCPCHNGFSCSVMPETEEVVCNNCPPGVTGARCELCADGYFGDPFGEHGPVRPCQPCQCNNNVDPSASGNCDRLTGRCLKCIHNTAGIYCDQCKAGYFGDPLAPNPADKCRACNCNPMGSEPVGCRSDGTCVCKPGFGGPNCEHGAFSCPACYNQVKIQMDQFMQQLQRMEALISKAQGGDGVVPDTELEGRMQQAEQALQDILRDAQISEGASRSLGLQLAKVRSQENSYQSRLDDLKMTVERVRALGSQYQNRVRDTHRLITQMQLSLAESEASLGNTNIPASDHYVGPNGFKSLAQEATRLAESHVESASNMEQLTRETEDYSKQALSLVRKALHEGVGSGSGSPDGAVVQGLVEKLEKTKSLAQQLTREATQAEIEADRSYQHSLRLLDSVSRLQGVSDQSFQVEEAKRIKQKADSLSSLVTRHMDEFKRTQKNLGNWKEEAQQLLQNGKSGREKSDQLLSRANLAKSRAQEALSMGNATFYEVESILKNLREFDLQVDNRKAEAEEAMKRLSYISQKVSDASDKTQQAERALGSAAADAQRAKNGAGEALEISSEIEQEIGSLNLEANVTADGALAMEKGLASLKSEMREVEGELERKELEFDTNMDAVQMVITEAQKVDTRAKNAGVTIQDTLNTLDGLLHLMDQPLSVDEEGLVLLEQKLSRAKTQINSQLRPMMSELEERARQQRGHLHLLETSIDGILADVKNLENIRDNLPPGCYNTQALEQQ
B2: His-tagged LAMC2 (WT) (protein, UniProt Q13753 22-1193)
chain: B1 chain

Legend:
[1] = target: Epidermal growth factor receptor (EGFR), endogenous (human (endogenous in A549 and HCC827)) (UniProt P00533); assay: co-IP; endogenous proteins in A549 and HCC827 cell lysates (150 mM NaCl, 1% NP-40, 50 mM Tris-HCl pH 8.0, protease inhibitor); primary antibody on Dynal magnetic beads overnight at 4 °C, five washes with PBS, western blot
[2] = target: Flag-tagged EGFR (WT) (UniProt P00533); assay: co-IP; A549 cells transfected with Flag-EGFR or LAMC2-His vectors (against the endogenous partner), A549 and HEK-293T cells co-transfected with both; lysates (150 mM NaCl, 1% NP-40, 50 mM Tris-HCl pH 8.0, protease inhibitor); primary antibody on Dynal magnetic beads overnight at 4 °C, five washes with PBS, western blot
[3] = target: Epidermal growth factor receptor (EGFR), endogenous (human (endogenous in A549 and HCC827)) (UniProt P00533); assay: as above

Binder | binding [1] | binding [2] | binding [3]
B1 | binds | binds | 
B2 |  | binds | binds
